From publication PMC6177257
These are yes or no findings as the source states them, for the method shown. In cells and extracts the contact can be indirect. Some results given as binding are weak or reduced against the parent protein; the word gives no strength. For some assays here: Where a sequence is shown, tags or fusion partners need not be part of it.

Amino acid sequences for entries named in this document (tags omitted).
UniProt P29555: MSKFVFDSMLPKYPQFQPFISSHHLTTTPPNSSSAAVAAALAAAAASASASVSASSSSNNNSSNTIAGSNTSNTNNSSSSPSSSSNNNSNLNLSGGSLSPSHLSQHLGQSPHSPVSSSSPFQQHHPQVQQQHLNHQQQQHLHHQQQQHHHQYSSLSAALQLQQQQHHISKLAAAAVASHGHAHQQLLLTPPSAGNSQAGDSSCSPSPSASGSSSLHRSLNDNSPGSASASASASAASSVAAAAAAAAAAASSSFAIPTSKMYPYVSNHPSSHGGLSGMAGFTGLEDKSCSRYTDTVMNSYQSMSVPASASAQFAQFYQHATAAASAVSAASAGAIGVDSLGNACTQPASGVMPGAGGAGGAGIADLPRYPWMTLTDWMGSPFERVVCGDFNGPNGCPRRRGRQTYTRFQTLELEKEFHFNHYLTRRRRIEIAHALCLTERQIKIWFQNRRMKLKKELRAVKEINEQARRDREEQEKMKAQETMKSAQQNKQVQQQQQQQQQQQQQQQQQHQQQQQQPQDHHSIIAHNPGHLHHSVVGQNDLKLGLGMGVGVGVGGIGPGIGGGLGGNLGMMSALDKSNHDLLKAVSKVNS

T1: VN-Exd (Extradenticle fused to the N-terminal fragment of Venus) (Drosophila (D. melanogaster)) (UniProt P40427)
T1 sequence: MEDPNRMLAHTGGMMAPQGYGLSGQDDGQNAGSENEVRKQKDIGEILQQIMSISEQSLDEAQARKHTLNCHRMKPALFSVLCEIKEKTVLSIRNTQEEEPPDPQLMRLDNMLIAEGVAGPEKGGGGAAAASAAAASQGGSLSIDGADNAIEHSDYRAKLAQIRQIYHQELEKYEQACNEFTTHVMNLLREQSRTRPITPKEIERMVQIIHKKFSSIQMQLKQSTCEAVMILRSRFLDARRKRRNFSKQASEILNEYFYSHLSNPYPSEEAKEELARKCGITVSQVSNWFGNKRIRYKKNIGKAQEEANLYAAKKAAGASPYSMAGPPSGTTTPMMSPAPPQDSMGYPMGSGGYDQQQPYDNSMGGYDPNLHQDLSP

T2: VC-Exd (Extradenticle fused to the C-terminal fragment of Venus) (Drosophila (D. melanogaster)) (UniProt P40427)
T2 sequence: T1 sequence

B1: Bagpipe ORF-CC (Bap-CC) (protein, UniProt P22809 1-382)
chain: MLNMESAGVSAAMAGLSKSLTTPFSINDILTRSNPETRRMSSVDSEPEPEKLKPSSDRERSISKSPPLCCRDLGLYKLTQPKEIQPSARQPSNYLQYYAAAMDNNNHHHQATGTSNSSAADYMQRKLAYFGSTLAAPLDMRRCTSNDSDCDSPPPLSSSPSESPLSHDGSGLSRKKRSRAAFSHAQVFELERRFAQQRYLSGPERSEMAKSLRLTETQVKIWFQNRRYKTKRKQIQQHEAALLGASKRVPVQVLVREDGSTTYAHMAAPGAGHGLDPALINIYRHQLQLAYGGLPLPQMQMPFPYFYPQHKVPQPIPPPTQSSSFVTASSASSSPVPIPIPGAVRPQRTPCPSPNGQMMSVESGAESVHSAAEDVDENVEID
B2: Tinman ORF-CC (Tin-CC) (protein, UniProt P22711 1-416)
chain: MLQHHQQQAQSGGYYDHYTQSPSPGSLTNADALNTTPFSVKDILNMVNQTEAYEGSYGHIDGAATASALFAAGEYQNPHQYLNHQQHQQSELPIPQQQLHHQHLDDGATTSSSLSPLLPPPPHQLYGGYQDYGMPAHMFQHHHGHPHQSFQHSASAYNMSASQFYAGASATAYQTPATYNYNYAGSGEVYGGATPSAVGIKSEYIPTPYVTPSPTLDLNSSAEVDSLQAPTQKLCVNPLSQRLMETASNSSSLRSIYGSDEGAKKKDNSQVTSSRSELRKNSISGNSNPGSNSGSTKPRMKRKPRVLFSQAQVLELECRFRLKKYLTGAEREIIAQKLNLSATQVKIWFQNRRYKSKRGDIDCEGIAKHLKLKSEPLDSPTSLPPPIPNHVMWPPTMQQSQQQQQHHAQQQQMQHM
B3: Bagpipe ORF-3xHA (Bap-HA) (protein, UniProt P22809 1-382)
chain: B1 chain
B4: Empty spiracles ORF-3xHA (Ems-HA) (protein, UniProt P18488 1-494)
chain: MTKMIPPVPTAAAAVMMPTPKQKIGFSIESIVGNDVSTAGGNSTPDLSGPQSPPPGERNVPGSPPQTPPATLTLIPGSPPHHLMAPPAHGLPYPHPHAQQQHLQAPHPHPHLSPAQQHVLHQHLLMQQQHPGTPKSHQDIQELLQRLHHNAAMASGLSPLQTRLSPETEQPQMAVSLKRERSPAPPAMEQAENPAQRIQPPHTPPKSVSPQSSQPSSSPTLLISSPHATPPQQQQQQPPPNYPKPAMMHPGGAGPMMMPGMPPAGLVRPFPMGPGGPPMPQGQPGLPDIKALPPYINAPPELPPQHNPHLIAAAQFQMAAALQAGHVLGPAAAAAAAAGLPPHAAQFMPNPGMARDSYQLYPWLLSRHGRIFPHRFPGSFLVPPFRKPKRIRTAFSPSQLLKLEHAFESNQYVVGAERKALAQNLNLSETQVKVWFQNRRTKHKRMQQEDEKGGEGGSQRNMHNGSGDEDDDELIDMEMDECPSDEEHELDASH
B5: Knirps ORF-3xHA (Kni-HA) (protein, UniProt P10734 1-429)
chain: MNQTCKVCGEPAAGFHFGAFTCEGCKSFFGRSYNNISTISECKNEGKCIIDKKNRTTCKACRLRKCYNVGMSKGGSRYGRRSNWFKIHCLLQEHEQAAAAAGKAPPLAGGVSVGGAPSASSPVGSPHTPGFGDMAAHLHHHHQQQQQQQVPRHPHMPLLGYPSYLSDPSAALPFFSMMGGVPHQSPFQLPPHLLFPGYHASAAAAAASAADAAYRQEMYKHRQSVDSVESQNRFSPASQPPVVQPTSSARQSPIDVCLEEDVHSVHSHQSSASLLHPIAIRATPTTPTSSSPLSFAAKMQSLSPVSVCSIGGETTSVVPVHPPTVSAQEGPMDLSMKTSRSSVHSFNDSGSEDQEVEVAPRRKFYQLEAECLTTSSSSSSHSAAHSPNTTTAHAEVKRQKLGGAEATHFGGFAVAHNAASAMRGIFVCV
B6: Tinman ORF-3xHA (Tin-HA) (protein, UniProt P22711 1-416)
chain: B2 chain
B7: Knirps ORF-CC (Kni-CC) (protein, UniProt P10734 1-429)
chain: B5 chain
B8: Tinman fused to VN (protein, UniProt P22711 1-416)
chain: B2 chain
B9: Bagpipe fused to VN (protein, UniProt P22809 1-382)
chain: B1 chain
B10: Empty spiracles fused to VN (protein, UniProt P18488 1-494)
chain: B4 chain

Key:
[1] = target: VN-AbdA (AbdominalA fused to the N-terminal fragment of Venus) (Drosophila (D. melanogaster)) (UniProt P29555); experiment: split reporter; BiFC competition in live Drosophila embryos: VN-AbdA and ORF-CC with co-expression of the corresponding non-complementing ORF-3xHA; abdA-Gal4 driver, epidermis of stage 10/11 embryos; identical parameters of confocal acquisition
[2] = target: CN-AbdA (AbdominalA fused to the N-terminal fragment of Cerulean) (Drosophila (D. melanogaster)) (UniProt P29555); experiment: split reporter; bicolour BiFC in live Drosophila embryos: ORF-CC co-expressed with CN-AbdA, VN-Exd and a mCherry reporter; abdA-Gal4 driver, stage 10 embryos
[3] = target: T1, VN-Exd (Extradenticle fused to the N-terminal fragment of Venus) (Drosophila (D. melanogaster)); experiment: as above
[4] = target: CN-AbdA (AbdominalA fused to the N-terminal fragment of Cerulean) (Drosophila (D. melanogaster)) (UniProt P29555); experiment: split reporter; Venus- or Cerulean-based BiFC in live Drosophila embryos; ORF-CC with VN-AbdA or CN-AbdA; abdA-Gal4 driver (epidermis, stage 10/11) or 24B-Gal4 driver (somatic mesoderm, stage 14); confocal observation
[5] = target: VN-AbdA (AbdominalA fused to the N-terminal fragment of Venus) (Drosophila (D. melanogaster)) (UniProt P29555); experiment: as above
[6] = target: T2, VC-Exd (Extradenticle fused to the C-terminal fragment of Venus) (Drosophila (D. melanogaster)); experiment: split reporter; Venus-based BiFC in live Drosophila embryos; TFs fused to VN with VC-Exd; abdA-Gal4 driver, epidermis of stage 10 embryos

Binder | binding [1] | binding [4] | binding [5] | binding [6] | other results
B1 | binds | binds | binds |  | binding [2]: binds; binding [3]: binds
B2 | binds | binds | binds |  | binding [2]: binds; binding [3]: binds
B3 | binds |  |  |  | 
B4 | binds |  |  |  | 
B5 | binds |  |  |  | 
B6 | binds |  |  |  | 
B7 | binds | binds | binds |  | 
B8 |  |  |  | binds | 
B9 |  |  |  | binds | 
B10 |  |  |  | no binding | 
